# Legend:
# Sus scrofa = species on record: Sus scrofa; assay: Inhibition of porcine heart malate dehydrogenase assessed as reduction in enzyme inhibition at 3 times IC50 preincubated for 5 min followed by nicotinamide adenine dinucleotide addition and monitered for 90 sec in presence of 0.01% Triton-X100 by spectrophotometric method relative to control; type: tissue-based; set-up: scale not given: the % may be the effect or the level left
# Summary of the method: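 After a 5 min room-temperature incubation, the rate was read over 90 s and compared with the negative control. The value is the percent change in inhibition with detergent; triplicate.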
# [1] = Inhibition of SARS CoV2 C-terminal His6-tagged 3CL protease (3264 to 3569 residues) expressed in Escherichia coli BL21 DE3 using rr-K(MCA)-ATLQAIAS-K(DNP)-COOH preincubated for 1 hr followed by substrate addition and measured after 1 hr in presence of 0.05% Tween-20; set-up: species or system Severe acute respiratory syndrome coronavirus 2
# Summary of the method: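 Purified recombinant 3CL-Pro at 50 nM final with quenched fluorogenic peptide at 10 μM final (KM), in 20 mM Tris, 150 mM NaCl, 1 mM EDTA, 1 mM DTT, 0.05% Tween-20, pH 7.4. Drug and enzyme were preincubated 1 h at 37 °C, then substrate was added and fluorescence followed 1 h.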
# [2] = Inhibition of porcine heart malate dehydrogenase preincubated for 5 min followed by nicotinamide adenine dinucleotide addition and monitered for 90 sec by spectrophotometric method; type: tissue-based, Sus scrofa
# Summary of the method: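 Porcine heart MDH was used at 2 nM final in 50 mM KPi pH 7 at room temperature. Compound was added from 100× DMSO stock (1% DMSO final) and incubated 5 min. Reactions were followed 90 s spectrophotometrically, with initial rates divided by the negative-control rate. Concentration–response used three replicates per concentration to give IC50 and Hill slope.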
# [3] = Inhibition of SARS-Cov2 N-terminal full-length MBP-tagged 3CL protease expressed in Escherichia coli using DABCYL-KTSAVLQSGFRKME-EDANS as substrate preincubated for 30 mins followed by substrate addition and measured after 3 hrs by fluorescence assay; set-up: species or system Severe acute respiratory syndrome coronavirus 2
Structure (SMILES),Activity (Sus scrofa) [%],IC50 [1] [µM],IC50 [2] [µM],IC50 [3] [µM]
Clc1ccccc1C(c1ccccc1)(c1ccccc1)n1ccnc1 [CLOTRIMAZOLE],53,> 200,22,39.8
O=C1CCc2ccc(OCCCCN3CCN(c4cccc(Cl)c4Cl)CC3)cc2N1,91,,,
